Test results published in the supplement of paper PMC10849652.
This is one part of the list.

The chains behind the UniProt entries cited, without tags or fusion partners. Where a name states a change or a piece, a line headed by the entry shows the natural chain unless it says otherwise.
UniProt Q9P2S5: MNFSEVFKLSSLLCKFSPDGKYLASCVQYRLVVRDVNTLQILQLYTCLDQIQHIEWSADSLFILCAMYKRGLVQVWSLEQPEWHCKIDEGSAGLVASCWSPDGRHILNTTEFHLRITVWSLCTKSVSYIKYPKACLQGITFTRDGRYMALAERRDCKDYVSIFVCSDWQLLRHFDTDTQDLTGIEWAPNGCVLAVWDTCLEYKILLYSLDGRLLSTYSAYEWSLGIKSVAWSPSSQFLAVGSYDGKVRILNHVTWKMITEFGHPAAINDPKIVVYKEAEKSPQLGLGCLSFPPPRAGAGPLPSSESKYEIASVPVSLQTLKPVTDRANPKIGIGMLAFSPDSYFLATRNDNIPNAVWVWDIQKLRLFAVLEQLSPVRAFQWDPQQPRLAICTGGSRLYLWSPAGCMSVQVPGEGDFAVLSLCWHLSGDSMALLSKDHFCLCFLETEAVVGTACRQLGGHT
UniProt O75554: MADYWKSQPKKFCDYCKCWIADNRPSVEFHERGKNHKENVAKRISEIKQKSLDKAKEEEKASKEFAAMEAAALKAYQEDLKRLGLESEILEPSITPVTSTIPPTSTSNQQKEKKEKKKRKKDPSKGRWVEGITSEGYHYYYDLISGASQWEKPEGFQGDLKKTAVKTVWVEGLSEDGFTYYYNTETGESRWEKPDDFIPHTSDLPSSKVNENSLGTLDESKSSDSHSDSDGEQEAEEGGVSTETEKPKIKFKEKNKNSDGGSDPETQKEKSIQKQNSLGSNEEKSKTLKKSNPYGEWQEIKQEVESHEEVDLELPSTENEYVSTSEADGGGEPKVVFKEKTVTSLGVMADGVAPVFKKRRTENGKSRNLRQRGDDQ
UniProt Q96S15: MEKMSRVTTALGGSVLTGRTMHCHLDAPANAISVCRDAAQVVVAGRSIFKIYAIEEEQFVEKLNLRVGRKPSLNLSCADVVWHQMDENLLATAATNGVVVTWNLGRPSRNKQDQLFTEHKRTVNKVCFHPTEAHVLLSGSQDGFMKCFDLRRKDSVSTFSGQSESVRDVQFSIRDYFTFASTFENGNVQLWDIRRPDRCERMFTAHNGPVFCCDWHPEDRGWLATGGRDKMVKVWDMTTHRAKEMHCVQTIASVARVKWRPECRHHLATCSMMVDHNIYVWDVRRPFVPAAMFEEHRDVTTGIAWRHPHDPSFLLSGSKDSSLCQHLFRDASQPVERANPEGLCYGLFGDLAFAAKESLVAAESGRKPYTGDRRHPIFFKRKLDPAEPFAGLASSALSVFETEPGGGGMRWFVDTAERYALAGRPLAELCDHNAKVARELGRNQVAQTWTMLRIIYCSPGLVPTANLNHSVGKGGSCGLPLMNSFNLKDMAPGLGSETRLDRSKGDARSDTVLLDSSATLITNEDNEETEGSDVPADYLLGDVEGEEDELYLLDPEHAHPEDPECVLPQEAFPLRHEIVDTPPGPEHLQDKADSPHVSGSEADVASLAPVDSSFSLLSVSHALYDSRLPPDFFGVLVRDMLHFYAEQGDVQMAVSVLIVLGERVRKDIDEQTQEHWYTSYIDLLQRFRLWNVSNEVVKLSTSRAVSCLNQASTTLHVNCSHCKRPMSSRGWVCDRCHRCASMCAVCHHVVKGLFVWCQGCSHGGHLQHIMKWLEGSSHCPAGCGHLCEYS
UniProt Q6P4I2: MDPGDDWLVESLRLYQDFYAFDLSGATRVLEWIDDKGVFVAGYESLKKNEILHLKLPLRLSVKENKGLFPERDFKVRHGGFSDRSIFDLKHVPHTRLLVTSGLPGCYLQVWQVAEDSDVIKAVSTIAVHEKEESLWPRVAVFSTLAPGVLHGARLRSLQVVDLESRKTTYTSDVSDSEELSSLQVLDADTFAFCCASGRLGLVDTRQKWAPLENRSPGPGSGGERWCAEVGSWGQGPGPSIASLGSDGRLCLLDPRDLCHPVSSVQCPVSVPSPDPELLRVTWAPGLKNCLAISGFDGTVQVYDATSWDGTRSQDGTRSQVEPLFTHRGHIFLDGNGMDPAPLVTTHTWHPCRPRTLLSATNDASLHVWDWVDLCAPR
UniProt Q8N9V3: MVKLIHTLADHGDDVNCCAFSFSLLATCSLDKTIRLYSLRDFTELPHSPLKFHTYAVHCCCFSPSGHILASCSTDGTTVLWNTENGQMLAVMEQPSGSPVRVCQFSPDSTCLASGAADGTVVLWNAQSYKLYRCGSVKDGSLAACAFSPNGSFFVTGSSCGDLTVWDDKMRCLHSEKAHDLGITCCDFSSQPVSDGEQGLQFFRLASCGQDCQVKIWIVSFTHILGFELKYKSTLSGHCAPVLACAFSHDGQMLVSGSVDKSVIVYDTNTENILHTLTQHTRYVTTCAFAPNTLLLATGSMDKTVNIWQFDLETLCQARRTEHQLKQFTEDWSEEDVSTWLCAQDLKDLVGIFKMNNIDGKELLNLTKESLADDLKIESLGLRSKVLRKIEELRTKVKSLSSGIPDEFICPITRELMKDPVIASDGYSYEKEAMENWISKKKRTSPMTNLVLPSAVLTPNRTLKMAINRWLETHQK
UniProt Q01831: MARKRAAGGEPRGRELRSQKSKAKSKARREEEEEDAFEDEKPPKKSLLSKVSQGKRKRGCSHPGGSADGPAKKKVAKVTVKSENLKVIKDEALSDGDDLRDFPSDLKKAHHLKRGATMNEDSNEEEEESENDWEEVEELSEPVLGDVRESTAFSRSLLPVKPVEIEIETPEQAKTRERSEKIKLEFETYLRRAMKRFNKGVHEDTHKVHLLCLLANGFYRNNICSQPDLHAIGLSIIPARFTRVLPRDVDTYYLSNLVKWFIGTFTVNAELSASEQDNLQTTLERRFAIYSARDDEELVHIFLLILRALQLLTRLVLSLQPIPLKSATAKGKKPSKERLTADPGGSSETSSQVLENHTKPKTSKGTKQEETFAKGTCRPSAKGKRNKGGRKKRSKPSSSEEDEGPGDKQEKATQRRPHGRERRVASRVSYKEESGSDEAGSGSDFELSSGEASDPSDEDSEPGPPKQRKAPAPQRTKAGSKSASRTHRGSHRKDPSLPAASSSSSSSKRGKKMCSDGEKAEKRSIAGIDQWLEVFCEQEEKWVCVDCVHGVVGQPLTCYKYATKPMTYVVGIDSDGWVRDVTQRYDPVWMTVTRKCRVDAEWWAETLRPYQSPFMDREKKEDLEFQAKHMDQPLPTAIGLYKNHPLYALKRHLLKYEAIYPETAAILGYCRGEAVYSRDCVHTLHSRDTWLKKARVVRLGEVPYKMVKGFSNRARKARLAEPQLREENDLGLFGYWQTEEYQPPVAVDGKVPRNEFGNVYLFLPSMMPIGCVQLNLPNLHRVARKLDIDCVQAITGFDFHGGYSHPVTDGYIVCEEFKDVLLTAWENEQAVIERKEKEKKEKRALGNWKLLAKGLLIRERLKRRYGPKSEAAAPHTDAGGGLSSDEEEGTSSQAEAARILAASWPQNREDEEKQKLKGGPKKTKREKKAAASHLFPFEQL
UniProt Q9NQW7: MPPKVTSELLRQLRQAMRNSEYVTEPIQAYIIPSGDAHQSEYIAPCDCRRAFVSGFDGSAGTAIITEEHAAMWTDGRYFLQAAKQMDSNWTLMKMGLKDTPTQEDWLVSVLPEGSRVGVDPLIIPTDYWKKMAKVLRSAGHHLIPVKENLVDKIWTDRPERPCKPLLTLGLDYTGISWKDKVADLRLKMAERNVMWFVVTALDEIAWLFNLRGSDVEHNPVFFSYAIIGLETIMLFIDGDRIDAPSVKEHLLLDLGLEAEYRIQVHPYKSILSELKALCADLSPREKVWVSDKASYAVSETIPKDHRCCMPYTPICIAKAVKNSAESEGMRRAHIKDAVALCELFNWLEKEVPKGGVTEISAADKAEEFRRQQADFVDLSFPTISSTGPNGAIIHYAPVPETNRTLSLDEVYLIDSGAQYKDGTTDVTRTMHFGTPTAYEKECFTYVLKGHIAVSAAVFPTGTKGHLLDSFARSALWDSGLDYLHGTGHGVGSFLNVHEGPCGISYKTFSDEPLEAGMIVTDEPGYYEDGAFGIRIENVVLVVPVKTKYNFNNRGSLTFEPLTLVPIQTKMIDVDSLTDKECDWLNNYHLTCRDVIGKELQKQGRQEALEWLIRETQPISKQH
UniProt Q3ZAQ7: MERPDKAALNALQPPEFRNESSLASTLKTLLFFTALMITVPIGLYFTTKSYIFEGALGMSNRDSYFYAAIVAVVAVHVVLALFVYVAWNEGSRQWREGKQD
UniProt Q8NEZ2: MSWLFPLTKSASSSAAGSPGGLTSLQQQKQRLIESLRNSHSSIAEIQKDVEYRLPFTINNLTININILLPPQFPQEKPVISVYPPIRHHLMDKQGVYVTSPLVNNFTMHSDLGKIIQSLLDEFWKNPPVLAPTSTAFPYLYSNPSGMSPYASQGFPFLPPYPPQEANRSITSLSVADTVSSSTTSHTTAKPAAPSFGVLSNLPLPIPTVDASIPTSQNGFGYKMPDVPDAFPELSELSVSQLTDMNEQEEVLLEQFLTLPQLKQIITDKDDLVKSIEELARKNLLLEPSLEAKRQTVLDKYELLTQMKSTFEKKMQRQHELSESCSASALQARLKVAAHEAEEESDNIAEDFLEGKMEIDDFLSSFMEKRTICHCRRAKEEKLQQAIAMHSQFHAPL
UniProt Q9Y2W2: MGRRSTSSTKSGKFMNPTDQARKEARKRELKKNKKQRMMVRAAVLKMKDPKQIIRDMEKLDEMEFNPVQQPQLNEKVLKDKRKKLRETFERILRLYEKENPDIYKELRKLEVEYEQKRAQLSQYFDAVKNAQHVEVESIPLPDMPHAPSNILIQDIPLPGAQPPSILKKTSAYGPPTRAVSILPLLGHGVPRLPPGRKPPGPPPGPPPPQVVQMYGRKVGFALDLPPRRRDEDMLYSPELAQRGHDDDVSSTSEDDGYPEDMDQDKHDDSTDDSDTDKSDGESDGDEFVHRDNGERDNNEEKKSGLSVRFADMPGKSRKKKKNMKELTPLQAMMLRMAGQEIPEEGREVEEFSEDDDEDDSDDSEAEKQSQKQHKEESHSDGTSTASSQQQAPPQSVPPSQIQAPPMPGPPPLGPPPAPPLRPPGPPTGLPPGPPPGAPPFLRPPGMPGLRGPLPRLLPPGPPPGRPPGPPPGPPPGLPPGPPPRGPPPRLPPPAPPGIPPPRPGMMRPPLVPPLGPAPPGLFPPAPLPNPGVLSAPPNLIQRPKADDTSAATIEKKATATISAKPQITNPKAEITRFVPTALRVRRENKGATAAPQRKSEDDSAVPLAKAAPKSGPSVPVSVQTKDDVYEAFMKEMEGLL
UniProt Q9UGM6: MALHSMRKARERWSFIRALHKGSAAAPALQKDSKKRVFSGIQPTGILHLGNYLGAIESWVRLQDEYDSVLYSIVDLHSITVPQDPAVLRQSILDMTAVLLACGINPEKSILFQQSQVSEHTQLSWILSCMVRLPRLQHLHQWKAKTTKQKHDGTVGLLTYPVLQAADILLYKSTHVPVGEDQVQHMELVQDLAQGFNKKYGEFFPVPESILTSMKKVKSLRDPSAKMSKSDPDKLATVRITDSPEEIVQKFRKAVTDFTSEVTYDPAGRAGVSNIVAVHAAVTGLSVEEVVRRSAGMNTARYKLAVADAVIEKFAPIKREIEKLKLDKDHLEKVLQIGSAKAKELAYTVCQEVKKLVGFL
UniProt Q9Y484: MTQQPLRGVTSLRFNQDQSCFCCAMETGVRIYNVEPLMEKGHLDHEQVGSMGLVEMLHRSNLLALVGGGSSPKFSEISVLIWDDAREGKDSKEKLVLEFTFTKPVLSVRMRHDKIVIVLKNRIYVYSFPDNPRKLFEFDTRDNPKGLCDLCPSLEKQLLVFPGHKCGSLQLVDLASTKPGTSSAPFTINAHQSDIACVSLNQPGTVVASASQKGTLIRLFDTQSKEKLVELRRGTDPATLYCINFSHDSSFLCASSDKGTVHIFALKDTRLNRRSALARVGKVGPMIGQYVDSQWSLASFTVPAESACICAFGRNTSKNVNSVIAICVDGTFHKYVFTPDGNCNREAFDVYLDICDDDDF
UniProt Q9BTA9: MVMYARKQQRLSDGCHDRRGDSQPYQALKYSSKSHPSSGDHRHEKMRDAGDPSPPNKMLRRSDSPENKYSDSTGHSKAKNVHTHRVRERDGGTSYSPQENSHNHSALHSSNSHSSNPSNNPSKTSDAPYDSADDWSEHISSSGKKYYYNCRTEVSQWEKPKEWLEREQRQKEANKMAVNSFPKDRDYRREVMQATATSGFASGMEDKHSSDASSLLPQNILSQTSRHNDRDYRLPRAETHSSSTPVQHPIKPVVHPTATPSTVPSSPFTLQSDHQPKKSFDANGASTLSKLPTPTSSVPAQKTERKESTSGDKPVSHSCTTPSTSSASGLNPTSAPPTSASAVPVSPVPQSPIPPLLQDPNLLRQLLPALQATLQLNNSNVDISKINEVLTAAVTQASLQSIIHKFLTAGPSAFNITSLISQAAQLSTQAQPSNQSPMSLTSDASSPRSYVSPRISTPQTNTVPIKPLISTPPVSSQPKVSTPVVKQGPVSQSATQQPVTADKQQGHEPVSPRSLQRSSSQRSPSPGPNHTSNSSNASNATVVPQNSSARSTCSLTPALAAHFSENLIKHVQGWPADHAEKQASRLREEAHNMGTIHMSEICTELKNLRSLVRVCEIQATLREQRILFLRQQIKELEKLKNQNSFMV

What was measured:
Test in all cases: log2 fold change, soluble protein after heating vs DMSO (PISA); higher = thermal stabilisation; K562 lysate, 10 uM; active = over 0.2 and 3.5 SD of the protein, either way, in both replicates (recomputed)
[1] = compound: CCCS(=O)(=O)Nc1ccc(F)c(C(=O)c2c[nH]c3ncc(-c4ccc(Cl)cc4)cc23)c1F [vemurafenib]
Procedure, shortened: (§1)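 Log-two fold change in thermal stability relative to solvent controls is reported from duplicates. For each sample, crude K562 extract from dounce-homogenised pellets in PBS pH 7.4 with 1 mM MgCl2, at 1 mg/mL protein, was treated with 10 μM compound for 30 min. Aliquots heated for 3 min across 48°C-58°C were pooled, brought to 0.5% NP-40 at 4°C and cleared at 21,000xg for 90 min. The supernatant was quantified by TMTpro 16plex LC-MS/MS with channel sums equalised.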

[2] = compound: CCCS(=O)(=O)Nc1ccc(F)c(C(=O)c2c[nH]c3ncc(Cl)cc23)c1F
Procedure, shortened: as §1

[3] = compound: CCN(CCCOc1ccc2c(Nc3cc(CC(=O)Nc4cccc(F)c4)[nH]n3)ncnc2c1)CCOP(=O)(O)O [barasertib]
Procedure, shortened: as §1

[4] = compound: CC[C@@H]1C(=O)N(C)c2cnc(Nc3ccc(C(=O)NC4CCN(C)CC4)cc3OC)nc2N1C1CCCC1
Procedure, shortened: as §1

[5] = compound: CC[C@@H]1C(=O)N(C)c2cnc(Nc3ccc(C(=O)N[C@H]4CC[C@H](N5CCN(CC6CC6)CC5)CC4)cc3OC)nc2N1C(C)C [volasertib]
Procedure, shortened: as §1

[6] = compound: CCn1c(C(=O)N(C2CC2)C2CC2)cc2c3c(ncn3C)c(Nc3cc(C)n(C)n3)nc21
Procedure, shortened: as §1

[7] = compound: CCn1cc(-c2ccnc3[nH]c(-c4cccc(CN(C)C)c4)cc23)c(-c2ccc(NC(=O)N(C)C)cc2)n1
Procedure, shortened: as §1

[8] = compound: CN1CCC(CNc2ccc3ncc(-c4cccc(OC(F)(F)F)c4)n3n2)CC1
Procedure, shortened: as §1

[9] = compound: CN1CCN(CCOc2cc(OC3CCOCC3)c3c(Nc4c(Cl)ccc5c4OCO5)ncnc3c2)CC1 [saracatinib]
Procedure, shortened: as §1

[10] = compound: CN1CCN(c2nc(C3=C(c4c[nH]c5ccccc45)C(=O)NC3=O)c3ccccc3n2)CC1 [sotrastaurin]
Procedure, shortened: as §1

Measured: log2 fold change

WDR81 (UniProt Q562E7)
inactive: [1] -0.011 | [2] -0.001 | [3] 0.025 | [4] -0.009 | [5] -0.02 | [6] -0.079 | [7] 0.012 | [8] -0.028 | [9] 0.022 | [10] -0.002

WNK4 (UniProt Q96J92)
inactive: [1] -0.008 | [2] -0.027 | [3] 0.109 | [4] -0.034 | [5] -0.139 | [6] 0.021 | [7] 0.405 | [8] -0.26 | [9] 0.001 | [10] 0.09

WRAP73 (UniProt Q9P2S5)
inactive: [1] 0.085 | [2] 0.035 | [3] -0.071 | [4] 0.035 | [5] 0.011 | [6] -0.068 | [7] -0.173 | [8] 0.038 | [9] 0 | [10] 0.068

WBP4 (UniProt O75554)
inactive: [1] 0.017 | [2] 0.016 | [3] -0.066 | [4] 0.079 | [5] 0.003 | [6] -0.043 | [7] -0.004 | [8] 0.063 | [9] -0.01 | [10] 0.019

WNK1 isoform 7 (UniProt Q9H4A3)
inactive: [1] 0.001 | [2] 0.036 | [3] 0.021 | [4] 0.01 | [5] -0.019 | [6] 0.009 | [7] 0.04 | [8] -0.013 | [9] 0.031 | [10] -0.004

WDR24 (UniProt Q96S15)
inactive: [1] 0.083 | [2] -0.036 | [3] 0.129 | [4] -0.055 | [5] -0.035 | [6] 0.047 | [7] -0.026 | [8] 0.043 | [9] 0.078 | [10] 0.082

WDR59 (UniProt Q6PJI9)
inactive: [1] 0.055 | [2] 0.017 | [3] 0.05 | [4] 0.029 | [5] -0.047 | [6] -0.021 | [7] 0 | [8] -0.027 | [9] 0.031 | [10] 0.014

VPS35L (UniProt Q7Z3J2)
inactive: [1] 0.016 | [2] 0.002 | [3] 0.001 | [4] -0.072 | [5] -0.047 | [6] -0.004 | [7] -0.02 | [8] -0.005 | [9] 0.004 | [10] 0.046

VPS26B (UniProt Q4G0F5)
inactive: [1] -0.001 | [2] 0.029 | [3] -0.005 | [4] -0.036 | [5] 0.011 | [6] -0.004 | [7] -0.131 | [8] 0.029 | [9] 0.014 | [10] 0.051

WDR73 (UniProt Q6P4I2)
inactive: [1] -0.011 | [2] -0.021 | [3] -0.024 | [4] 0.033 | [5] -0.017 | [6] -0.001 | [7] -0.036 | [8] 0.086 | [9] 0.013 | [10] -0.001

WDSUB1 (UniProt Q8N9V3)
inactive: [1] 0 | [2] 0.015 | [3] -0.02 | [4] 0.027 | [5] 0.006 | [6] 0.018 | [7] -0.082 | [8] 0.068 | [9] -0.007 | [10] 0.036

XPC (UniProt Q01831)
inactive: [1] -0.067 | [2] 0.036 | [3] 0.016 | [4] -0.059 | [5] -0.031 | [6] -0.002 | [7] 0.073 | [8] -0.107 | [9] 0 | [10] -0.033

VPS53 isoform 4 (UniProt Q5VIR6)
inactive: [1] -0.003 | [2] 0.019 | [3] 0.059 | [4] -0.004 | [5] -0.028 | [6] 0.004 | [7] 0.009 | [8] -0.046 | [9] 0.024 | [10] 0.025

XPNPEP1 isoform 3 (UniProt Q9NQW7)
inactive: [1] 0.001 | [2] 0.015 | [3] 0.008 | [4] -0.044 | [5] -0.054 | [6] 0.014 | [7] -0.022 | [8] 0.019 | [9] -0.001 | [10] -0.016

WASF1 (UniProt Q92558)
inactive: [1] -0.012 | [2] 0.035 | [3] 0.013 | [4] -0.039 | [5] 0.009 | [6] -0.067 | [7] -0.052 | [8] 0.052 | [9] -0.041 | [10] 0.023

WIPI2 (UniProt Q9Y4P8)
inactive: [1] -0.028 | [2] 0.012 | [3] -0.06 | [4] -0.073 | [5] -0.022 | [6] 0.002 | [7] -0.108 | [8] 0.09 | [9] 0.01 | [10] -0.002

WDR91 (UniProt A4D1P6)
inactive: [1] -0.096 | [2] 0.028 | [3] 0.046 | [4] -0.043 | [5] -0.023 | [6] 0.055 | [7] -0.01 | [8] 0.041 | [9] 0.067 | [10] 0.019

VMA21 (UniProt Q3ZAQ7)
inactive: [1] 0.026 | [2] -0.01 | [3] -0.011 | [4] -0.108 | [5] -0.021 | [6] 0.051 | [7] -0.209 | [8] -0.02 | [9] 0.056 | [10] -0.018

WARS (UniProt P23381)
inactive: [1] -0.008 | [2] -0.012 | [3] -0.043 | [4] 0.048 | [5] 0.016 | [6] -0.025 | [7] 0.131 | [8] -0.061 | [9] -0.002 | [10] -0.052

VPS37A (UniProt Q8NEZ2)
inactive: [1] 0.032 | [2] 0.029 | [3] 0.074 | [4] 0.018 | [5] -0.027 | [6] 0.067 | [7] 0.008 | [8] -0.092 | [9] 0.044 | [10] 0

WBP11 (UniProt Q9Y2W2)
inactive: [1] -0.033 | [2] -0.016 | [3] -0.03 | [4] 0.031 | [5] 0.037 | [6] -0.017 | [7] -0.043 | [8] 0.01 | [9] 0.004 | [10] -0.002

WDCP (UniProt Q9H6R7)
inactive: [1] -0.004 | [2] 0.033 | [3] 0.032 | [4] 0.031 | [5] -0.019 | [6] -0.04 | [7] 0.003 | [8] 0.01 | [9] -0.011 | [10] 0.039

WARS2 (UniProt Q9UGM6)
inactive: [1] 0.001 | [2] 0.038 | [3] -0.039 | [4] -0.013 | [5] -0.044 | [6] 0.003 | [7] 0.042 | [8] -0.058 | [9] -0.016 | [10] 0.023

WDHD1 (UniProt O75717)
inactive: [1] -0.03 | [2] 0.022 | [3] -0.02 | [4] -0.011 | [5] -0.026 | [6] -0.001 | [7] 0.078 | [8] -0.066 | [9] 0.024 | [10] 0.003

VPS41 (UniProt P49754)
inactive: [1] -0.018 | [2] -0.016 | [3] 0.085 | [4] 0.005 | [5] -0.078 | [6] 0.06 | [7] 0.074 | [8] -0.054 | [9] 0.002 | [10] 0.058

XAB2 (UniProt Q9HCS7)
inactive: [1] 0.033 | [2] 0.075 | [3] -0.015 | [4] 0.065 | [5] -0.02 | [6] 0.05 | [7] -0.044 | [8] 0.017 | [9] 0.006 | [10] 0

WDR45 isoform 2 (UniProt Q9Y484)
inactive: [1] -0.028 | [2] 0.043 | [3] 0.005 | [4] 0.052 | [5] 0 | [6] 0.12 | [7] -0.19 | [8] 0.086 | [9] 0.01 | [10] 0.024

WTAP (UniProt Q15007)
inactive: [1] -0.034 | [2] 0.017 | [3] 0.042 | [4] -0.071 | [5] -0.054 | [6] -0.023 | [7] -0.041 | [8] 0.016 | [9] -0.013 | [10] 0.022

8 successive entries already listed, quoted:
VMA21 (UniProt Q3ZAQ7)
inactive: [1] 0.026 | [2] -0.01 | [3] -0.011 | [4] -0.108 | [5] -0.021 | [6] 0.051 | [7] -0.209 | [8] -0.02 | [9] 0.056 | [10] -0.018

WARS (UniProt P23381)
inactive: [1] -0.008 | [2] -0.012 | [3] -0.043 | [4] 0.048 | [5] 0.016 | [6] -0.025 | [7] 0.131 | [8] -0.061 | [9] -0.002 | [10] -0.052

VPS37A (UniProt Q8NEZ2)
inactive: [1] 0.032 | [2] 0.029 | [3] 0.074 | [4] 0.018 | [5] -0.027 | [6] 0.067 | [7] 0.008 | [8] -0.092 | [9] 0.044 | [10] 0

WBP11 (UniProt Q9Y2W2)
inactive: [1] -0.033 | [2] -0.016 | [3] -0.03 | [4] 0.031 | [5] 0.037 | [6] -0.017 | [7] -0.043 | [8] 0.01 | [9] 0.004 | [10] -0.002

WDCP (UniProt Q9H6R7)
inactive: [1] -0.004 | [2] 0.033 | [3] 0.032 | [4] 0.031 | [5] -0.019 | [6] -0.04 | [7] 0.003 | [8] 0.01 | [9] -0.011 | [10] 0.039

WARS2 (UniProt Q9UGM6)
inactive: [1] 0.001 | [2] 0.038 | [3] -0.039 | [4] -0.013 | [5] -0.044 | [6] 0.003 | [7] 0.042 | [8] -0.058 | [9] -0.016 | [10] 0.023

WDHD1 (UniProt O75717)
inactive: [1] -0.03 | [2] 0.022 | [3] -0.02 | [4] -0.011 | [5] -0.026 | [6] -0.001 | [7] 0.078 | [8] -0.066 | [9] 0.024 | [10] 0.003

VPS41 (UniProt P49754)
inactive: [1] -0.018 | [2] -0.016 | [3] 0.085 | [4] 0.005 | [5] -0.078 | [6] 0.06 | [7] 0.074 | [8] -0.054 | [9] 0.002 | [10] 0.058

The results go on:

WDR61 (UniProt Q9GZS3)
inactive: [1] -0.008 | [2] -0.001 | [3] -0.003 | [4] -0.01 | [5] -0.023 | [6] 0.063 | [7] -0.031 | [8] 0.008 | [9] -0.009 | [10] -0.037

WAC isoform 5 (UniProt Q9BTA9)
inactive: [6] 0.047 | [9] -0.078
